{"source": "patent US20250206828A1", "about": "“ANTI-ADENOSINE RECEPTOR (A2aR) ANTIBODIES AND THE USE THEREOF” (Adept Therapeutics Inc., priority 2022, published 2025)", "binders": {"B1": {"name": "Hu3F6-H3/Hu3F6-L5 (antibody, human IgG1, V domains shown)", "VH": "EVQLVQSGAEVKKPGASVKVSCKTSGFAFTSYWMNWVRQAPGQGLEWIGRIDPSDSEAHYHHKFWGRATLTVDTSSSTVYMELSSLRSEDTAVYYCLRSLYGKGDYWGHGTTVTVSS", "VL": "DVVMTQTPLSLSVTPGQPASISCRSSQSLVHRNGNTYLEWYLQKPGQSPQLLIYKVSNRFSGVPDRFSGSGSGTDFTLKISRVEAEDVGVYYCYQGSHVPLTFGGGTKVEIK", "notes": "Human IgG1 FES (L234F, L235E, P331S) and human Ig kappa constant domains; also called Hu3F6 VH3/VL5; Hu3F6-VH3/VL5"}, "B2": {"name": "Hu3F6-H5/Hu3F6-L5 (antibody, human IgG1, V domains shown)", "VH": "EVQLVQSGAEVKKPGASVKVSCKTSGFAFTSYWMNWVRQAPGQGLEWIGRIDPSDSEAHYAHKFWGRATLTVDKSSSTVYMELSSLRSEDTAVYYCLRSLYGKGDYWGHGTTVTVSS", "VL": "DVVMTQTPLSLSVTPGQPASISCRSSQSLVHRNGNTYLEWYLQKPGQSPQLLIYKVSNRFSGVPDRFSGSGSGTDFTLKISRVEAEDVGVYYCYQGSHVPLTFGGGTKVEIK", "notes": "Human IgG1 FES (L234F, L235E, P331S) and human Ig kappa constant domains; also called Hu3F6 VH5/VL5; Hu3F6-VH5/VL5"}}, "key": {"[1]": {"biological_target": "cynomolgus adenosine A2A receptor (A2aR) (cynomolgus)", "assay": "flow cytometry on cynomolgus PBMC"}, "[2]": {"biological_target": "cynomolgus adenosine A2A receptor (A2aR) (cynomolgus)", "assay": "flow cytometry on cynomolgus PBMC, FIG. 4B"}}, "note": "No constants are given. Whether binding was seen depends on the method and setting. A result given as binding can be weak or reduced; the word gives no strength."}
{"binder": "B1", "values": [{"measurement": "binding", "setting": "[1]", "value": "binds"}, {"measurement": "binding", "setting": "[2]", "value": "binds"}]}
{"binder": "B2", "values": [{"measurement": "binding", "setting": "[1]", "value": "binds"}, {"measurement": "binding", "setting": "[2]", "value": "binds"}]}
